According to patent US12351591B2, “KRas inhibitors” (ELI LILLY AND COMPANY, priority 2022, dated 2025):
Some results were stated once for a whole list of compounds, not compound by compound.

Columns and labels:
KRas G12D [1] = biological target: T1, KRas G12D (Homo sapiens, UniProt P01116, G12D); test: PANC-1 Cellular Active RAS GTPase ELISA (KRas G12D Mutation); format: cell-based; details: PANC-1 cells, 2 hours; read-out: relative IC50, inhibition of constitutive RAS GTPase activity (KRas G12D mutant)
T1 construct: host or cells: PANC-1

KRas wild-type = biological target: T2, KRas wild-type (Homo sapiens, UniProt P01116); test: MKN-45 Cellular Active RAS GTPase ELISA (KRas Wild-type); format: cell-based; details: PANC-1 versus MKN-45 Cellular Active RAS GTPase ELISA
T2 construct: host or cells: MKN-45

KRas G12D [2] = biological target: T1, KRas G12D; test: Cellular Phospho-ERK AlphaLISA, HPAC cells (KRAS G12D); format: cell-based; details: 2 h, read-out: relative IC50, reduction of phosphorylated ERK-1/2 in cells expressing KRAS G12D
NRAS = NRAS (Homo sapiens, UniProt P01111); test: Cellular Phospho-ERK AlphaLISA, MEF-NRAS cells (RAS-less MEFs expressing NRAS only); format: cell-based, mouse; details: 2 h, read-out: relative IC50, phospho-ERK, MEF-NRAS
HRAS = HRAS (Homo sapiens, UniProt P01112); test: Cellular Phospho-ERK AlphaLISA, MEF-HRAS cells (RAS-less MEFs expressing HRAS only); format: cell-based, mouse; details: 2 h, read-out: relative IC50, phospho-ERK, MEF-HRAS
KRAS WT = biological target: T3, KRAS WT (Homo sapiens, UniProt P01116); test: Cellular Phospho-ERK AlphaLISA, MKN45 cells (WT KRAS amplification); format: cell-based; details: cells expressing KRAS WT, 2 h; read-out: relative IC50, reduction of phosphorylated ERK-1/2 in cells expressing KRAS WT
T3 construct: or amplification of the KRAS gene; endogenous in cells; host or cells: MKN45

KRAS G12C = biological target: T4, KRAS G12C (Homo sapiens, UniProt P01116, G12C); test: Cellular Phospho-ERK AlphaLISA, NCI-1373 cells (KRAS G12C); format: cell-based; details: 2 h, read-out: relative IC50, reduction of phosphorylated ERK-1/2 in cells expressing KRAS G12C
T4 construct: endogenous in cells; host or cells: NCI-1373

KRAS G12V = biological target: T5, KRAS G12V (Homo sapiens, UniProt P01116, G12V); test: Cellular Phospho-ERK AlphaLISA, SW620 cells (KRAS G12V); format: cell-based; details: 2 h, read-out: relative IC50, reduction of phosphorylated ERK-1/2 in cells expressing KRAS G12V
T5 construct: endogenous in cells; host or cells: SW620

SMILES | IC50 (KRas G12D [1]) [µM] | selective inhibition preference for KRas G12D mutant over KRas wild-type (KRas wild-type) | other results
N#Cc1c(N)sc2ccc(F)c(-c3c4c(c5c(N6C7CC6CN(CCCO)C7)nc(OC[C@@]67CCCN6C[C@H](F)C7)nc5c3F)COC4)c12 (single isomer, unassigned) [Example 98] | < 0.1 | greater than 10 fold | –
N#Cc1c(N)sc2c(F)cnc(-c3c4c(c5c(N6C7CCC6CN(CCCO)C7)nc(OCCn6cccn6)nc5c3F)COC4)c12 [Example 335, 2-Amino-7-fluoro-4-[5-fluoro-1-[3-(3-hydroxypropyl)-3,8-diazabicyclo[3.2.1]octan-8-yl]-3-(2-pyrazol-1-ylethoxy)-7,9-dihydrofuro[3,4-f]quinazolin-6-yl]thieno[3,2-c]pyridine-3-carbonitrile] | – | greater than 10 fold | –
N#Cc1c(N)sc2c(F)ccc(-c3c4c(c5c(N6C7CCC6CNC7)cnnc5c3F)COC4)c12 [Example 13, 2-Amino-4-[9-(3,8-diazabicyclo[3.2.1]octan-8-yl)-5-fluoro-1,3-dihydrofuro[3,4-f]cinnolin-4-yl]-7-fluoro-benzothiophene-3-carbonitrile] | – | greater than 10 fold | –
CN1CC(F)(F)C[C@H]1COc1nc(N2C3CCC2CN(CCCO)C3)c2c3c(c(-c4ncc(F)c5sc(N)c(C#N)c45)c(F)c2n1)COC3 [Example 337, 2-Amino-4-[3-[[(2S)-4,4-difluoro-1-methyl-pyrrolidin-2-yl]methoxy]-5-fluoro-1-[3-(3-hydroxypropyl)-3,8-diazabicyclo[3.2.1]octan-8-yl]-7,9-dihydrofuro[3,4-f]quinazolin-6-yl]-7-fluoro-thieno[3,2-c]pyridine-3-carbonitrile] | – | greater than 10 fold | –
N#Cc1c(N)sc2ccc(F)c(-c3c4c(c5c(N6C[C@H]7C[C@@H]6CN7)ncnc5c3F)COC4)c12 (single isomer, unassigned; isomer 2) [Example 3] | < 0.1 | greater than 10 fold | –
CN1CCC(F)(COc2nc(N3C4CCC3CN(CCCO)C4)c3c4c(c(-c5ncc(F)c6sc(N)c(C#N)c56)c(F)c3n2)COC4)C1 (stereo not drawn) [Example 338, 2-Amino-7-fluoro-4-[5-fluoro-3-[(3-fluoro-1-methyl-pyrrolidin-3-yl)methoxy]-1-[3-(3-hydroxypropyl)-3,8-diazabicyclo[3.2.1]octan-8-yl]-7,9-dihydrofuro[3,4-f]quinazolin-6-yl]thieno[3,2-c]pyridine-3-carbonitrile] | – | greater than 10 fold | –
N#Cc1c(N)sc2ccnc(-c3c4c(c5c(N6C7CNCC6C7)nc(OC[C@@]67CCCN6C[C@H](F)C7)nc5c3F)COC4)c12 [Example 27, 2-Amino-4-[1-(3,6-diazabicyclo[3.1.1]heptan-6-yl)-5-fluoro-3-[[(2R,8S)-2-fluoro-1,2,3,5,6,7-hexahydropyrrolizin-8-yl]methoxy]-7,9-dihydrofuro[3,4-f]quinazolin-6-yl]thieno[3,2-c]pyridine-3-carbonitrile] | – | greater than 10 fold | –
C[C@@H](O)CN1CC2CC(C1)N2c1nc(OC[C@H]2CN(C)CCO2)nc2c(F)c(-c3c(F)ccc4sc(N)c(C#N)c34)c3c(c12)COC3 (single isomer, unassigned) [Example 366] | – | greater than 10 fold | –
N#CCC1OCc2c(-c3ccc(F)c4sc(N)c(C#N)c34)c(Cl)c3ncnc(N4C[C@H]5C[C@@H]4CN5)c3c21 (single isomer, unassigned; isomer 2) [Example 5] | < 0.1 | greater than 10 fold | –
C[C@@H](O)CN1CC2CCC(C1)N2c1nc(OC[C@H]2CN(C)CC[C@@H]2F)nc2c(F)c(-c3ncc(F)c4sc(N)c(C#N)c34)c3c(c12)COC3 (mixture of isomers) [Example 349, 2-Amino-7-fluoro-4-[5-fluoro-3-[[(3RS,4SR)-4-fluoro-1-methyl-3-piperidyl]methoxy]-1-[3-[(2R)-2-hydroxypropyl]-3,8-diazabicyclo[3.2.1]octan-8-yl]-7,9-dihydrofuro[3,4-f]quinazolin-6-yl]thieno[3,2-c]pyridine-3-carbonitrile] | – | greater than 10 fold | –
Cc1c(-c2ccc(F)c3sc(N)c(C#N)c23)c2c(c3c(N4C[C@H]5C[C@@H]4CN5)ncnc13)COC2 (single isomer, unassigned; isomer 1) [Example 22] | < 0.1 | greater than 10 fold | –
CN1C[C@H](F)C[C@H]1COc1nc(N2C3CCC2CN(CCF)C3)c2c3c(c(-c4ncc(F)c5sc(N)c(C#N)c45)c(F)c2n1)COC3 [Example 373, 2-Amino-7-fluoro-4-[5-fluoro-1-[3-(2-fluoroethyl)-3,8-diazabicyclo[3.2.1]octan-8-yl]-3-[[(2S,4R)-4-fluoro-1-methyl-pyrrolidin-2-yl]methoxy]-7,9-dihydrofuro[3,4-f]quinazolin-6-yl]thieno[3,2-c]pyridine-3-carbonitrile] | – | greater than 10 fold | –
N#Cc1c(N)sc2c(F)cnc(-c3c4c(c5c(N6C7CCC6CN(C6COC6)C7)nc(OC[C@@]67CCCN6C[C@H](F)C7)nc5c3F)COC4)c12 [Example 219, 2-Amino-7-fluoro-4-[5-fluoro-3-[[(2R,8S)-2-fluoro-1,2,3,5,6,7-hexahydropyrrolizin-8-yl]methoxy]-1-[3-(oxetan-3-yl)-3,8-diazabicyclo[3.2.1]octan-8-yl]-7,9-dihydrofuro[3,4-f]quinazolin-6-yl]thieno[3,2-c]pyridine-3-carbonitrile] | < 0.1 | – | IC50 (KRas G12D [2]): < 0.5 µM; IC50 (NRAS): > 2 µM; IC50 (HRAS): > 2 µM; IC50 (KRAS WT): < 0.5 µM; IC50 (KRAS G12C): < 0.5 µM; IC50 (KRAS G12V): < 0.5 µM
N#Cc1c(N)sc2ccc(F)c(-c3c4c(c5c(N6C7CCC6CN(C[C@@H](O)CF)C7)nc(OC[C@@]67CCCN6C[C@H](F)C7)nc5c3F)COC4)c12 [Example 165, 2-Amino-5-fluoro-4-[5-fluoro-3-[[(2R,8S)-2-fluoro-1,2,3,5,6,7-hexahydropyrrolizin-8-yl]methoxy]-1-[3-[(2R)-3-fluoro-2-hydroxy-propyl]-3,8-diazabicyclo[3.2.1]octan-8-yl]-7,9-dihydrofuro[3,4-f]quinazolin-6-yl]benzothiophene-3-carbonitrile] | < 0.1 | – | IC50 (KRas G12D [2]): < 0.5 µM; IC50 (NRAS): > 2 µM; IC50 (HRAS): > 2 µM; IC50 (KRAS WT): < 0.5 µM; IC50 (KRAS G12C): < 0.5 µM; IC50 (KRAS G12V): < 0.5 µM
